{"source": "PubChem BioAssay AID1259405 (NCATS, 2018)", "test": "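Knock-downs that lift recombinant protein yield in hamster ovary cells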 (primary screen)", "cells": "Chinese hamster CHO-K1 ovary cells with stable secreted eGFP expression", "reagents": "single siRNA against mouse genes, 0.8 pmol siRNA per well (2 µl of 400 nM stock)", "timing": "3 days", "read-out": "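Per-well intracellular GFP measured by laser scanning cytometry, plus viability from ATP luminescence, each relative to plate median of non-targeting control wells, in %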", "direction": "GFP, % of control: higher = more GFP per well, higher productivity; viability (ATP), % of control: higher = more viable cells (more ATP)", "hit rule": "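a knock-down is called active if GFP reaches 120% or more of non-targeting control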", "note": "The whole screen tested about 50,000 reagents; below is an unselected part. In the full data, about 4,000 (8%) got an active call. 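Mouse siRNA library applied to hamster cells; one well for each siRNA.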 Reagents against one gene are numbered here."}
{"Target gene":"Ttc7","siRNA no.":1,"GFP, % of control":47.6,"viability (ATP), % of control":41.6,"activity call":"inactive"}
{"Target gene":"Ttc7","siRNA no.":2,"GFP, % of control":73.5,"viability (ATP), % of control":104,"activity call":"inactive"}
{"Target gene":"Ttc7","siRNA no.":3,"GFP, % of control":41.5,"viability (ATP), % of control":56.3,"activity call":"inactive"}
{"Target gene":"Paics","siRNA no.":1,"GFP, % of control":113,"viability (ATP), % of control":113,"activity call":"inactive"}
{"Target gene":"Paics","siRNA no.":2,"GFP, % of control":62.8,"viability (ATP), % of control":56.4,"activity call":"inactive"}
{"Target gene":"Paics","siRNA no.":3,"GFP, % of control":68.4,"viability (ATP), % of control":74.9,"activity call":"inactive"}
{"Target gene":"Vpreb1b","siRNA no.":1,"GFP, % of control":48,"viability (ATP), % of control":36,"activity call":"inactive"}
{"Target gene":"Vpreb1b","siRNA no.":2,"GFP, % of control":77.7,"viability (ATP), % of control":73.7,"activity call":"inactive"}
{"Target gene":"Vpreb1b","siRNA no.":3,"GFP, % of control":56.3,"viability (ATP), % of control":48.3,"activity call":"inactive"}
{"Target gene":"Apoc4","siRNA no.":1,"GFP, % of control":91.1,"viability (ATP), % of control":56.7,"activity call":"inactive"}
{"Target gene":"Apoc4","siRNA no.":2,"GFP, % of control":43.4,"viability (ATP), % of control":58.3,"activity call":"inactive"}
{"Target gene":"Apoc4","siRNA no.":3,"GFP, % of control":92.7,"viability (ATP), % of control":74,"activity call":"inactive"}
{"Target gene":"Or6c6","siRNA no.":1,"GFP, % of control":83.2,"viability (ATP), % of control":75.2,"activity call":"inactive"}
{"Target gene":"Or6c6","siRNA no.":2,"GFP, % of control":76.6,"viability (ATP), % of control":66.3,"activity call":"inactive"}
{"Target gene":"Or6c6","siRNA no.":3,"GFP, % of control":76.5,"viability (ATP), % of control":102,"activity call":"inactive"}
{"Target gene":"Stk38","siRNA no.":1,"GFP, % of control":99.3,"viability (ATP), % of control":95.8,"activity call":"inactive"}
{"Target gene":"Stk38","siRNA no.":2,"GFP, % of control":80.4,"viability (ATP), % of control":66.1,"activity call":"inactive"}
{"Target gene":"Stk38","siRNA no.":3,"GFP, % of control":94,"viability (ATP), % of control":64.8,"activity call":"inactive"}
{"Target gene":"Ahdc1","siRNA no.":1,"GFP, % of control":89.9,"viability (ATP), % of control":95.9,"activity call":"inactive"}
{"Target gene":"Ahdc1","siRNA no.":2,"GFP, % of control":82.6,"viability (ATP), % of control":68.9,"activity call":"inactive"}
{"Target gene":"Ahdc1","siRNA no.":3,"GFP, % of control":74.2,"viability (ATP), % of control":90.8,"activity call":"inactive"}
{"Target gene":"Igsf5","siRNA no.":1,"GFP, % of control":49.5,"viability (ATP), % of control":69.5,"activity call":"inactive"}
{"Target gene":"Igsf5","siRNA no.":2,"GFP, % of control":77.6,"viability (ATP), % of control":53.6,"activity call":"inactive"}
{"Target gene":"Igsf5","siRNA no.":3,"GFP, % of control":80.5,"viability (ATP), % of control":52.1,"activity call":"inactive"}
{"Target gene":"Vmn1r215","siRNA no.":1,"GFP, % of control":60.6,"viability (ATP), % of control":74.6,"activity call":"inactive"}
{"Target gene":"Vmn1r215","siRNA no.":2,"GFP, % of control":70.9,"viability (ATP), % of control":81.9,"activity call":"inactive"}
{"Target gene":"Vmn1r215","siRNA no.":3,"GFP, % of control":45.6,"viability (ATP), % of control":84.3,"activity call":"inactive"}

Laid out differently: results already given
Target gene | siRNA no. | GFP, % of control | viability (ATP), % of control | activity call
Paics | 1 | 113 | 113 | inactive
Paics | 2 | 62.8 | 56.4 | inactive
